The data set has as its system INTS6 + INTS3 (SOSS1 subunit) + hSSB1 (SOSS1 subunit) + INIP (SOSS1 subunit). Put plainly: EMSA. The note with it: 5 mM Mg2+, pattern similar to INTS6 alone; EMSA: 25 mM Tris-Cl pH 7.5, 1 mM DTT, 5 mM MgCl2, 100 mM NaCl, 20 min at 37 C; protein 22-167 nM, nucleic acid 10 nM; 7.5% native PAGE, 0.5x TBE, 4 C; recombinant protein; label: 5'-Cy3; single-stranded DNA. (Mobility shift assays separate free from complexed probe on a gel.)

For at least one entry, the source does not settle the construct or the ends of the probe. The comparison behind a weaker result is the experiment's own reference, which may not be listed here. At least one verdict rests on a figure or table, not on a statement of the authors.

Consider “GTGCCTTGCTAGGACATCTTT [21-mer ssDNA (pR630)]”, for which the binding result is listed as “binds more weakly”.

Source of the values: publication PMC11602137.
